# Experimental data from PubChem BioAssay AID540256 (National Center for Advancing Translational Sciences (NCATS), 2011).
# The campaign covered roughly 300,000 compounds. About 3,700 (1.2%) were called active. Inconclusive results, whose numbers are uncertain, are shown with a selection of clear calls. Calls come from the whole dose curve; tested in HEK293 cells. A potency beside an inconclusive call is a rough fit, not a confirmed value.
# Assay: qHTS for Inhibitors of binding or entry into cells for Lassa Virus; note: nearly all actives have a fitted effect of over 50% in size
# Details: Lassa virus pseudotype entry inhibition, cell reporter; series mostly up to 37.9 µM
# Potency is the fitted concentration of half-maximal effect.
row,Compound,Potency
1,CSc1ccc(NC(=O)N2CC=C(n3c(=O)[nH]c4ccccc43)CC2)cc1,"inconclusive: 29.1 µM [inhibitor, single point]"
2,CCNC(=O)NC1(C(=O)Nc2ccc3c(c2)CCC3)CCCCC1,inactive
3,CCCCCn1c(=O)[nH]c2cc(C(=O)N3CCN(c4cc(Cl)ccc4C)CC3)ccc2c1=O,inactive
4,Oc1ccc2ccccc2c1/C=N/Nc1nnc(-c2ncc[nH]2)c2ccccc12,"inconclusive: 20.6 µM [inhibitor, single point]"
5,CCOC(=O)c1c(C)nc2sc3c(=O)n(-c4ccc(C(C)=O)cc4)nnc3c2c1-c1ccc(OC)cc1,"inconclusive: 22.4 µM [inhibitor, partial curve, poor fit]"
6,Cc1ccc(O)c(/C=N/NC(=O)c2[nH]ncc2Br)c1,"inconclusive: 29.1 µM [inhibitor, single point]"
7,O=C(Nc1cccc(Cl)c1Cl)c1ccc(-c2ccccc2)cc1,"inconclusive: 35.5 µM [inhibitor, single point]"
8,O=Cc1c(Sc2ccccc2)nc2ccccn2c1=O,"inconclusive: 12.6 µM [inhibitor, partial curve]"
9,CSCCC(NC(=O)c1ccccc1)C(=O)N1CCN(Cc2ccc(Cl)cc2)CC1 (configuration not stated),"inconclusive: 2.82 µM [inhibitor, full curve, poor fit]"
10,COc1ccc(C2CC(c3ccc(Br)cc3)=NN2C(=S)Nc2ccccc2)cc1 (configuration not stated),"inconclusive: 2.06 µM [inhibitor, full curve]"
11,Cc1ccc(C(=O)NC(=S)NNS(=O)(=O)c2ccccc2)cc1,"inconclusive: 10 µM [activator, partial curve]"
12,O=C(NCc1ccccc1Cl)c1ccc(CS(=O)(=O)c2ccccc2)o1,"inconclusive: 31.6 µM [inhibitor, partial curve, poor fit]"
13,COc1ccc(F)cc1CN1CCN(c2ncnc3scc(-c4ccccc4)c23)CC1,"inconclusive: 3.98 µM [inhibitor, partial curve, poor fit]"
14,COc1ccc(C)cc1NS(=O)(=O)c1ccc2c3c(cccc13)C(=O)N2,"inconclusive: 10 µM [inhibitor, partial curve, poor fit]"
15,O=S(=O)(Nc1nc2ccccc2s1)c1cnc(Cl)c(Br)c1,"inconclusive: 35.5 µM [inhibitor, single point]"
16,O=C(/C=C/c1ccccc1)Nc1ccc(S(=O)(=O)N2CCOCC2)cc1,"inconclusive: 7.08 µM [inhibitor, partial curve, poor fit]"
17,CCN(CC)CCCN(C(=O)c1ccccc1F)c1nc(-c2ccc(OC)cc2)cs1,"inconclusive: 35.5 µM [inhibitor, single point]"
